This is an account of results in publication PMC3201017, “Modification of the loops in the ligand-binding site turns avidin into a steroid-binding protein” (BMC Biotechnology, 2011).

Chains of the proteins cited; added tags and fusions are not shown. Residues count along the entry.
UniProt P02768, residues 25-609: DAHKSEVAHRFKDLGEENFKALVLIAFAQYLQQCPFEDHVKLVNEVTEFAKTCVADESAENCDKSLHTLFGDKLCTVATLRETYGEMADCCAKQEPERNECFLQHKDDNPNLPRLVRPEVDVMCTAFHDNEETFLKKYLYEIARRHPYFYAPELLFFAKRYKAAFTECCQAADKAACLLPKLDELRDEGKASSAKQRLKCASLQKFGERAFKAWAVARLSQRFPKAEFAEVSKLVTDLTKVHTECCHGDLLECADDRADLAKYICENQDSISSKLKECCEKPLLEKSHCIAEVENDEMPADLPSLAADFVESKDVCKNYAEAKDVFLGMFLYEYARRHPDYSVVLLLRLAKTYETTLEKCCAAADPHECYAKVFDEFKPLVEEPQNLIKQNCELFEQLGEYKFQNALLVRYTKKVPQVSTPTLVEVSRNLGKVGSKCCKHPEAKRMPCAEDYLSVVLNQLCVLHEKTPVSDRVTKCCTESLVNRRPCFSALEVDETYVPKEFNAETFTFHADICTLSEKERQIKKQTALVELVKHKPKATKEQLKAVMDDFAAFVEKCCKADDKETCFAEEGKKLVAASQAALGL
UniProt P02769, residues 25-607: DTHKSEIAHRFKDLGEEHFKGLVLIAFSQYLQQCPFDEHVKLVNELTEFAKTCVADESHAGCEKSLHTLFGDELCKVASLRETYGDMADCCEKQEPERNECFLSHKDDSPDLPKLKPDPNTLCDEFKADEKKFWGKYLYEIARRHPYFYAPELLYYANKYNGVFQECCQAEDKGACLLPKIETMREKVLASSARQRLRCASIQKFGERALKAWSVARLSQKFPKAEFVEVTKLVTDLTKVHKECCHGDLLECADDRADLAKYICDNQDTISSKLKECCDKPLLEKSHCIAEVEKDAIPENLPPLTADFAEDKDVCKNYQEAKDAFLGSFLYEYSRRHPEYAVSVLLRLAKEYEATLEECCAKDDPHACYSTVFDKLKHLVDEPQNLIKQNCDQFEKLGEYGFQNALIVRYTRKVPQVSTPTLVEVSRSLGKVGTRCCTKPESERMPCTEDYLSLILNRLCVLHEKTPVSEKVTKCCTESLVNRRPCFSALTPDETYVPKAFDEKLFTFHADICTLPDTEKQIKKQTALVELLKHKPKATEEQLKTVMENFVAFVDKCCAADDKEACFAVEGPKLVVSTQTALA

Results are given in words; binding and its absence hold for the method and conditions named.

Experiment [1] concerns the target human serum albumin (human) (UniProt P02768). In words: ELISA; microplate assay; MaxiSorp wells coated with 500 ng carrier protein (HSA or BSA) in PBS, blocked with 0.5% BSA-PBS; Avd proteins 0.9 μg/ml in 20 mM sodium phosphate pH 7.4, 1 M NaCl, 20 mM imidazole, 1 h; bound Avd detected by polyclonal rabbit anti-avidin IgG; both purified. A general note: ELISA stands for enzyme-linked immunosorbent assay.

The target in experiment [2] is bovine serum albumin (bovine) (UniProt P02769). Described as above.

With “steroid-binding avidin mutant sbAvd-1 (from UniProt P02701 25-152) (designed binder)”, the binding result in experiment [1] is on record as “no binding (tested: 0.9 μg/ml)”. Same read-out and setting: with “steroid-binding avidin mutant sbAvd-2 (from UniProt P02701 25-152) (designed binder)” the entry was “no binding (tested: 0.9 μg/ml)”.

B1: steroid-binding avidin mutant sbAvd-1 (designed binder)
chain: ARKCSLTGKWTNRMNHNMTIGAVNSRGEFTGTYITAVTATSNEIKESPLHGTQNTINKRTQPTFGFTVNWKFSESTTVFTGQCFIDRNGKEVLKTMWLLRSSVNDIGDDWKATRVGINIFTRLRTQKE
notes: chicken avidin (Avd) with the loop between beta-strands 1 and 2 (N12, D13, L14, G15, S16) changed to N12, R13, M14, N15, H16; selected by phage display from the Avd L1,2 library; source: E. coli BL21-AI, pET101/D, secreted with the OmpA signal of Bordetella avium, purified (Ni-NTA)
For the molecule B1, the binding result in experiment [2] was “no binding (tested: 0.9 μg/ml)”.

B2: steroid-binding avidin mutant sbAvd-2 (designed binder)
chain: ARKCSLTGKWTNRMNHNMTIGAVNSRGEFTGTYIATVNATSNEIKESPLHGTQNTINKRTQPTFGFTVNWKFSESTTVFTGQCFIDRNGKEVLKTMWLLRSSVNDIGDDWKATRVGINIFTRLRTQKE
notes: selected by phage display from the sbAvd-1 L3,4 library; source: E. coli BL21-AI, pET101/D, secreted with the OmpA signal of Bordetella avium, purified (Ni-NTA)
Turning to B2, the binding entry in experiment [2] is “no binding (tested: 0.9 μg/ml)”.
